Library screen at single concentrations

Measurements from “University of Dundee, Small-Polar-MMV Screening Library” (2021), ChEMBL document CHEMBL3988442.

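Assay of Toxoplasma gondii numbers, read through their beta-galactosidase reporter with a colour substrate. Tested at 50 µM. Higher reads as fewer parasites (inferred from which compounds were picked for retests). About 18,000 compounds were tested under these conditions; 0.94% (about 170) showed 50% or more at least once.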

Results are given as percent effect. The controls that fix the scale are not given in the record; negative values are as filed. Compounds were drawn at random from those tested, without regard to their results.

Compound	Percent Effect
CN(c1cccc(C(N)=O)c1)S(=O)(=O)c1ccccc1	24.48
CN1CCN(C(=O)CCSc2ccccc2)CC1	2.162
CCNS(=O)(=O)c1csc(C(=O)Nc2cc(C)on2)c1	60.53
COCCCN1CCC(Nc2ccc(Cl)cn2)CC1	-6.441
CC[C@H](C)[C@H](N)C(=O)NCCOc1nonc1C	-0.3598
CN(C)S(=O)(=O)c1cccc(S(=O)(=O)N(C)C)c1	-3.054
CC(C)N(CC(N)=O)Cc1cn2ccccc2n1	-25.93
Cc1nnc2n1CC(NC(=O)COCC(F)(F)F)CC2 (stereo not drawn)	-13.31
CN(CC1CCOCC1)C(=O)NCc1ccco1	26.97
Cc1cccc(N2CCC(N3CCOC(C)C3)CC2)n1 (stereo not drawn)	9.448
CCCn1cnnc1CNC(=O)Cn1nc(C)cc1N	-13.26
CNC(=O)CC(C)N(C)C(=O)c1ccc2c(c1)CCC2 (stereo not drawn)	0.7274
CCc1ccc(CN2C[C@@H]3CCC[C@H](C2)C(=O)N3)nc1	-0.8224
CCn1cnnc1CCNC(=O)c1occc1C	-11.85
NCC1(CC(N)=O)CC1	-19.62
NC1CCN(C2COC2)CC1	-6.816
COc1c(C)cnc(CNC(=O)NC2CC2)c1C	8.679
N#Cc1cccc(NC(=O)CN2CCCCCC2=O)c1	-9.565
Cc1ccc(S(N)(=O)=O)cc1F	21.93
COc1cc(Cl)ccc1CNC(=O)c1nccnc1N	-11.13
CC1CNCCN1c1nc2ccccc2o1 (stereo not drawn)	-4.853
CNCC(=O)N1CCCC(OCc2ccccn2)C1 (stereo not drawn)	4.421
O=C(NCCN1CCCC1)c1ccccc1F	-0.6359
Cc1cccc(-c2ccnc(N)n2)c1	-22.25
CC(O)Cc1cccnc1 (stereo not drawn)	28.58
COc1cc(C)c(C(C)N)cc1OC (stereo not drawn)	-22.42
OCc1conc1C(F)F	-3.556
OCCCN1CCCN(Cc2ccc(F)cc2)CC1	11.61
CC(CCOc1ccccc1)C(=O)NC1(C#N)CC1 (stereo not drawn)	5.064
CC(C)(C)c1cc(=O)[nH]c(C(C)(C)N)n1	29.03
CN(CCC#N)C(=O)c1cnn(-c2cccc(Cl)c2)c1	4.585
CSCC1CCN(CC(=O)Nc2ccn(C)n2)CC1	16.13
CC(C)COCCN1CCCN(C)C(=O)C1	3.104
COc1ccc(N(CC(N)=O)S(C)(=O)=O)cc1OC	-1.229
Cc1nc(NC(=O)c2ccnn2C)sc1C	-0.8478
Oc1ccnc(C2CCC2)n1	-13.3
Nc1nccnc1Br	10.3
O=C(NCCn1ccnn1)c1c(O)cccc1F	-4.036
O=C(Nc1ccccc1N1CCCC1=O)C1CCC1	-4.207
CN(Cc1ncc[nH]1)C(=O)Cc1cc(F)cc(F)c1	12.58
CCn1cnnc1CNC(=O)c1cccc(N(C)C)c1	-3.897
CCCN1CCC(Cc2noc(C3CCNC3)n2)CC1 (stereo not drawn)	2.055
NC1CCC(N2CCCCC2=O)CC1 (stereo not drawn)	12.52
CCN(CC)S(=O)(=O)c1cccc(NCC(=O)OC)c1	8.041
CC(C)CCN1CCC(CNC(=O)NCCO)CC1	-3.271
COC(=O)c1ccc(CN2CCCS(=O)(=O)CC2)o1	-8.683
CC(C(=O)NCc1cccs1)n1cccn1 (stereo not drawn)	-4.26
Cc1ccc(NC(=O)C2CCCN2)nc1 (stereo not drawn)	-13.73
CCN(CC)C(=O)c1cccc2cn[nH]c12	-3.671
COc1ccc(-c2noc(Cn3cncn3)n2)cn1	-1.215
COc1c(CNCCS(C)(=O)=O)c(C)nn1C	3.832
Cc1ccc(S(=O)(=O)N2CCNC(=O)C2)cc1C(N)=O	3.593
COCCc1noc(CN2CC[C@H](CO)[C@H](O)C2)n1	4.219
Cc1c(C(=O)N2CCCC2)cnn1-c1ccc(F)cc1	-3.141
CCC(CO)NC(=O)c1ccc(Cl)c(OC)c1 (stereo not drawn)	11.03
COCCN1CCC(CNC(=O)c2cn[nH]c2)C1 (stereo not drawn)	13.82
CCc1nnsc1C(=O)N1CCc2sccc2C1	-20.28
CN1CCN(c2ccncc2N)CC1	-13.83
COc1ccc(Br)c(C(=O)NCCCN)c1	8.242
c1cc(C2CCCCN2)n[nH]1 (stereo not drawn)	15.64
CN(Cc1ccco1)S(=O)(=O)CCN1CCCC1	0.8724
CCNC(=O)N1CCc2cc(OC)c(OC)cc2C1	-2.559
CN(CCN1CCCC1)S(=O)(=O)c1ccccc1	5.955
CC(C)OCCCC(=O)N1CCCC(C)(O)C1 (stereo not drawn)	-2.104
NCCn1cc(C(=O)N2CCCCCCC2)nn1	3.499
CCOC(=O)C(C)(N)C(C)C (stereo not drawn)	18.95
CCn1c(CN2CCCC2)nnc1[C@H]1C[C@H](N)C1	-6.168
Cc1cncc(-c2cc(NCCO)nc(N)n2)c1	-16.14
CN1CCN(C(=O)C2CCC(CN)CC2)CC1 (stereo not drawn)	-15.39
CN1C(=O)C(N)CCc2ccccc21 (stereo not drawn)	-0.6304
CNS(=O)(=O)c1ccc(C(=O)NCC(C)(C)N(C)C)o1	-2.111

The last 5 entries again:

Compound,Percent Effect
CCn1c(CN2CCCC2)nnc1[C@H]1C[C@H](N)C1,-6.168
Cc1cncc(-c2cc(NCCO)nc(N)n2)c1,-16.14
CN1CCN(C(=O)C2CCC(CN)CC2)CC1 (stereo not drawn),-15.39
CN1C(=O)C(N)CCc2ccccc21 (stereo not drawn),-0.6304
CNS(=O)(=O)c1ccc(C(=O)NCC(C)(C)N(C)C)o1,-2.111